Residue numbers refer to the chain shown, from its start. These are yes or no findings as the source states them, for the method shown. For some assays here: In cells and extracts the contact can be indirect. Some entries that bind do so weakly or less than the wild type. Tags and fused reporters may be left off the sequences shown.
T1: GST-Slp1 (UniProt Q99N80)
T1 sequence: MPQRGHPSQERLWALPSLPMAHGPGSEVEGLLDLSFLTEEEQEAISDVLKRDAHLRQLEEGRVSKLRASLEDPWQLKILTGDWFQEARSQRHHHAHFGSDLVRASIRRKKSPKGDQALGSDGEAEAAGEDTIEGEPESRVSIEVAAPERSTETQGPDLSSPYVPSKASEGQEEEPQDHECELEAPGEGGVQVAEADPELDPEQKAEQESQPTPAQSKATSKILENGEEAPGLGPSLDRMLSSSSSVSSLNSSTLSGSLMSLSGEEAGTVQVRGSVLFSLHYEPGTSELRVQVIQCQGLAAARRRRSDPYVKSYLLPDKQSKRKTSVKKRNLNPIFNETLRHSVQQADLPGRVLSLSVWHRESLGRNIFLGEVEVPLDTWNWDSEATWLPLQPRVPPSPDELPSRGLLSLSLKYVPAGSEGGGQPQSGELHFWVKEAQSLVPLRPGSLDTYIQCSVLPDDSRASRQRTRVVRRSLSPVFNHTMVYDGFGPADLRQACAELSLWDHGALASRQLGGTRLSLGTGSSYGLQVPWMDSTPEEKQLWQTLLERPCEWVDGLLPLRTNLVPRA

B1: his6-Rab27a^WT (protein, UniProt P23640 1-221)
chain: MSDGDYDYLIKFLALGDSGVGKTSVLYQYTDGKFNSKFITTVGIDFREKRVVYRANGPDGTVGRGQRIHLQLWDTAGQERFRSLTTAFFRDAMGFLLLFDLTNEQSFLNVRNWISQLQMHAYCENPDIVLCGNKSDLEDQRAVKEEEARELAEKYGIPYFETSAANGTNISQAIEMLLDLIMKRMERCVDKSWIPEGVVRSNGHTSTDQLSEEKEKGLCGC
B2: native Rab27a from melanocyte lysates (protein, UniProt Q9ERI2 1-221)
chain: B1 chain with T61A, Q172H, T207A

Experiments:
[1] = biological target: T1, GST-Slp1; experiment: pull-down; his6-Rab27a loaded with GTPγS, incubated with GST fusion proteins and glutathione-Sepharose 20 min at room temperature in Buffer A with CHAPS and 0.5 mM GTPγS; immunoblot for Rab27a and GST; both purified
[2] = biological target: T1, GST-Slp1; experiment: pull-down; effector pull-down: 25 µg PNS of melan-INK4a cells (treated with NT, ATP1a1 and/or R3G siRNA) with 20 µM GST or GST-Slp1 and glutathione-Sepharose, 45 min room temperature, Buffer A; immunoblot for Rab27a and GST; only the target purified

| Binder | binding [1] | binding [2] |
| --- | --- | --- |
| B1 | binds |  |
| B2 |  | binds |

From PMC4106853
